PMC8546544
These are yes or no findings as the source states them, for the method shown. Binding seen in cells or lysates may run through a third protein. Binding calls can cover weak binding; strength is not graded here.

Molecular target: NPC1^P692S-GFP
Assay: co-IP; lysate of transfected HEK293T cells (150 mM NaCl, 25 mM Tris-HCl pH 7.6, 1% NP-40) incubated with anti-GFP nanobody affinity gel at 4°C for 4 h; Western blot for the endogenous partner; in one panel cells were untreated, treated with 2.5 mM MβCD or with MβCD plus 20 μg/ml water-soluble cholesterol for 40 min before harvest (MβCD reduced, cholesterol restored the co-precipitate)

B1: endogenous flotillin 2 (FLOT2) (protein, UniProt Q14254 1-428)
chain: MGNCHTVGPNEALVVSGGCCGSDYKQYVFGGWAWAWWCISDTQRISLEIMTLQPRCEDVETAEGVALTVTGVAQVKIMTEKELLAVACEQFLGKNVQDIKNVVLQTLEGHLRSILGTLTVEQIYQDRDQFAKLVREVAAPDVGRMGIEILSFTIKDVYDKVDYLSSLGKTQTAVVQRDADIGVAEAERDAGIREAECKKEMLDVKFMADTKIADSKRAFELQKSAFSEEVNIKTAEAQLAYELQGAREQQKIRQEEIEIEVVQRKKQIAVEAQEILRTDKELIATVRRPAEAEAHRIQQIAEGEKVKQVLLAQAEAEKIRKIGEAEAAVIEAMGKAEAERMKLKAEAYQKYGDAAKMALVLEALPQIAAKIAAPLTKVDEIVVLSGDNSKVTSEVNRLLAELPASVHALTGVDLSKIPLIKKATGVQV
binding: binds
